# From PubChem BioAssay AID662 (National Center for Advancing Translational Sciences (NCATS), 2007)
# The other results are listed elsewhere or left out. These are further read-outs of the screen, such as a control signal, another cell line or another target. No call is given for them. Most of these compounds were active or inconclusive in the main read-out, so they are no random draw. The note in brackets gives the kind of curve behind each potency; many fits are weak.
# Assay: Cell signaling CRE-BLA (Fsk stim)
# Conditions: CHO CRE-bla reporter (cAMP response element driving beta-lactamase), forskolin EC10, beta-lactamase ratio; measured here: 460 nm blue channel
# Excerpt: NIH Molecular Libraries Screening Centers Network [MLSCN]
# NIH Chemical Genomics Center [NCGC]
# Assay Provider: Marshall W. Nirenberg, U.S. National heart lung & blood institute
# Memories persist for different lengths of time, from seconds or minutes to a lifetime. There are two kinds of memory: short-term memory (STM) and long-term memory (LTM). STM lasts for minutes to hours, which maybe mediated by modifications of molecules involved in synaptic functions. LTM lasts for days or longer, and may be due to the formation of new synapses or restructuring of existing synapses. LTM, but not STM, requires gene transcription and synthesis of proteins. CREB (cyclic-AMP Responsive Element Binding Protein) is one of the candidates plays an important role for enhancement of some types of LTM. CREB, a family of transcription factors, regulates the transcription of genes containing cAMP Responsive Elements (CRE). CRE is a nucleotide sequence often found in the promoter regions of genes that are binding sites for CREB.
# Using a beta-lactamase reporter-gene under control of cAMP responsive element, a cell-based assay [CellSensor(TM) CRE-bla CHO developed by Invitrogen Corp.] was used to measure forskolin-induced signaling. Library compounds were measured for their ability to modulate positively or negatively the action of EC10 NKH 477, a water soluble forskolin, on reporter gene activity. Compounds were screened in a titration series in 1536-well format. Positive and negative modulators were identified based on the AC50 values derived from the screening data.
# NCGC Assay Protocol Summary
# 2000 cells/5uL in Opti-MEM medium containing 0.5% dialyzed FBS, 0.1 mM NEAA, 1 mM sodium pyruvate and 10 mM HEPES was dispensed into 1536-well plates and cells were cultured at 37 degrees Celsius overnight. […] And then the plates were incubated at 37 degrees Celsius for 3 hours. 1 uL of CCF4-dye mixture was added to each well. After incubated at room temperature for 2 hours the plates were measured on an EnVision plate reader at Excitation 405nm, Emission1=460nm and Emission 2=530nm. The %Activity was determined from the ratio of 460nm/530nm.
# Keywords: NIH Roadmap, MLSCN, MLSMR, qHTS, NCGC, CRE, beta-lactamase reporter-gene assay.
row,Structure (SMILES),AC50
1,COc1ccccc1N1CCN(C(=O)c2cc(-c3ccc(C)cc3)on2)CC1,"15.8 µM [falling, partial curve]"
2,CN(C(=O)c1cc2n(n1)C(C(F)(F)F)CC(c1ccco1)N2)c1ccc(OC(F)(F)F)cc1 (configuration not stated),"25.1 µM [falling, single point]"
3,CN(C)c1ccc(/C(=N\O)C(F)(F)F)cc1,"0.00316 µM [falling, full curve, poor fit]"
4,Cc1cc(C)c(C#N)c(SCC(=O)Nc2nnc(-c3ccccc3)s2)n1,"0.398 µM [rising, full curve]"
5,CCOC(=O)c1nc(S(C)(=O)=O)ncc1Cl,"12.6 µM [falling, partial curve]"
6,CCn1c(=O)cc(SCC(=O)Nc2cccnc2)c2ccccc21,"10 µM [rising, partial curve]"
7,O=C(C1CCC1)N1CCc2cc(S(=O)(=O)N3CCCCC3)ccc21,"6.31 µM [rising, partial curve]"
8,COc1ccc2cc3cc(C(=O)NCCCN4CCOCC4)oc3nc2c1,"25.1 µM [falling, single point]"
9,O=C1NCCCc2c1oc1ccc(O)cc21,"3.98 µM [falling, full curve]"
10,CCOC(=O)N1CCN(Cc2cccs2)CC1,"0.631 µM [falling, full curve, poor fit]"
11,CCOC(=O)C1=C(C)N=c2s/c(=C\c3ccncc3)c(=O)n2C1c1ccc2c(c1)OCO2 (configuration not stated),"1 µM [falling, partial curve, poor fit]"
12,COc1ccc(OC)c(-c2cc(C(=O)Nc3c(C)nn(Cc4ccccc4Cl)c3C)no2)c1,"1.26 µM [rising, partial curve]"
13,CCOC(=O)c1c(C)oc2c(F)c(F)c(F)c(F)c2c1=O,"2.51 µM [falling, partial curve]"
14,CCOC(=O)N1CCC(NC(=O)c2cc3c(-c4ccc(OC)c(OC)c4)nn(C)c3s2)CC1,"3.98 µM [rising, single point]"
15,O=C(N1CCOCC1)N1CCN(c2nc(-c3ccc(F)cc3)cs2)CC1,"3.98 µM [rising, partial curve]"
16,Cc1cc(N)c2ccccc2[n+]1CCCCCCCCCC[n+]1c(C)cc(N)c2ccccc21,"31.6 µM [falling, single point]"
17,CC(NO)C(C)(C)NO (configuration not stated),"25.1 µM [rising, single point]"
18,COc1ccc2c(C)nc(Nc3nc(C)cc(=O)[nH]3)nc2c1,"3.98 µM [rising, full curve]"
19,O=C(CSc1nc2ccccc2c(=O)n1Cc1ccco1)NCc1ccccc1,"25.1 µM [rising, single point]"
20,O=C1C(C=NCCN2CCOCC2)=C(O)c2ccccc21,"1.26 µM [falling, partial curve, poor fit]"
21,O=C(N1CCOCC1)N(Cc1ccco1)CC1CCCO1 (configuration not stated),"0.0794 µM [falling, full curve, poor fit]"
22,COc1ccc(OC)c(Nc2cc(-c3ccccc3)nc(N)n2)c1,"3.98 µM [rising, single point]"
23,O=C(CSc1nnc(COc2ccccc2)n1Cc1ccco1)NCc1ccco1,"31.6 µM [falling, single point]"

row,Structure (SMILES),AC50
1,CCn1c2ccccc2c2cc(NC(=O)Cc3ccc(S(=O)(=O)N4CCOCC4)s3)ccc21,"1.26 µM [falling, partial curve]"
2,CN1CCN(CCCNC(=O)c2cc3c(=O)n(C)c4ccccc4c3s2)CC1,"10 µM [rising, single point]"
3,CC1CCCC(C)N1C(=O)CSc1nnc(-c2c[nH]c3ccccc23)o1 (configuration not stated),"12.6 µM [rising, single point]"
4,CCN(CC)S(=O)(=O)c1ccc(C(=O)OC2CCCCC2CN(C)C)cc1 (configuration not stated),"10 µM [rising, single point]"
5,Cc1c(C(C)O)nnn1-c1nonc1N (configuration not stated),"0.00398 µM [falling, full curve, poor fit]"
6,O=C1c2ccccc2C(=O)N1OCCOCCOCCON1C(=O)c2ccccc2C1=O,"0.00316 µM [falling, full curve, poor fit]"
7,O=c1[nH]c(C2CCCN(S(=O)(=O)c3ccccc3)C2)nc2c1nnn2Cc1ccccc1 (configuration not stated),"10 µM [rising, partial curve]"
8,CC(C)(CC(=O)N1CCN(c2ccc(Cl)cc2)CC1)CC1=NS(=O)(=O)c2ccccc2N1,"12.6 µM [falling, single point]"
9,Cc1cccc2cc(C#N)c(NCCNS(=O)(=O)c3ccc4c(c3)OCCO4)nc12,"12.6 µM [rising, partial curve]"
10,Cn1c(=O)n(C)c2cc(C(=O)O)ccc21,"25.1 µM [falling, single point]"
11,O=c1c(CCc2ccccc2)nc2cnc(N3CCNCC3)nc2n1C1CC1,"15.8 µM [rising, single point]"
12,O=C(Nc1ccc(-n2nncc2-c2ccco2)cc1)c1cccc(F)c1,"12.6 µM [rising, single point]"
13,CCn1cc(C(=O)NCc2ccco2)c(=O)c2cc(S(=O)(=O)N3CCc4ccccc4C3)ccc21,"12.6 µM [falling, partial curve]"
14,COc1ccc(N(CC(=O)Nc2cccc(C(C)=O)c2)S(C)(=O)=O)cc1OC,"12.6 µM [rising, partial curve]"
15,COC(=O)c1cc(OC)c(OC)cc1NC(=O)c1c(-c2ccccc2Cl)noc1C,"0.501 µM [rising, partial curve]"
16,Cn1c(=O)c2c(nc(SCCNS(=O)(=O)c3ccccc3)n2C)n(C)c1=O,"20 µM [rising, single point]"
17,COC(=O)c1ccccc1NC(=O)c1noc2c1CCCC2,"25.1 µM [rising, single point]"
18,CCOC(=O)Cc1csc(NC(NC(=O)CC)(C(F)(F)F)C(F)(F)F)n1,"0.2 µM [rising, partial curve, poor fit]"
19,COc1ccc(O)c(/C=c2/sc3nc4cc(C)c(C)cc4n3c2=O)c1,"20 µM [rising, single point]"
20,COc1ccc(NC(=O)CCOc2ccccc2)c(OC)c1,"0.631 µM [falling, full curve]"
21,CC(=O)c1sc(Nc2ccccn2)nc1C,"12.6 µM [rising, partial curve]"
22,COc1cccc(C2=Nn3c(nnc3-c3ccccc3O)SC2)c1,"2.51 µM [rising, full curve]"
23,Nc1ccc(O)cc1C(=O)OCC(=O)C12CC3CC(CC(C3)C1)C2,"12.6 µM [rising, single point]"

# Given bar-delimited: 4 of the compounds above
row | Structure (SMILES) | AC50
14 | COc1ccc(N(CC(=O)Nc2cccc(C(C)=O)c2)S(C)(=O)=O)cc1OC | 12.6 µM [rising, partial curve]
16 | Cn1c(=O)c2c(nc(SCCNS(=O)(=O)c3ccccc3)n2C)n(C)c1=O | 20 µM [rising, single point]
21 | CC(=O)c1sc(Nc2ccccn2)nc1C | 12.6 µM [rising, partial curve]
22 | COc1cccc(C2=Nn3c(nnc3-c3ccccc3O)SC2)c1 | 2.51 µM [rising, full curve]

# Later entries.

row,Structure (SMILES),AC50
1,Cc1cc2c(c(Sc3ccccc3)n1)C(=O)OC2,"25.1 µM [rising, single point]"
2,COc1cccc(Cn2c(=O)c(-c3cn(C)c4ccccc34)nc3cnc(N4CCOCC4)nc32)c1,"12.6 µM [rising, partial curve]"
3,CCOC(=O)c1sc(NC(=O)c2c(C)noc2C)c(C(=O)OCC)c1C,"0.00501 µM [falling, full curve, poor fit]"
4,COCc1cc(C)nc(SCC(=O)Nc2cccc3cccnc23)c1C#N,"12.6 µM [rising, partial curve]"
5,O=c1[nH]c2ccccc2nc1-c1cccs1,"10 µM [rising, partial curve]"
6,Cc1sc2nc(C(C)C)nc(SCC(=O)NCc3ccco3)c2c1C,"7.94 µM [rising, partial curve]"
7,CCCOc1ccc(-c2nc(C#N)c(N3CCN(CC)CC3)o2)cc1,"20 µM [rising, partial curve]"
8,Cc1ccc(NC(=O)c2noc3c2CCCCC3)cc1C,"20 µM [rising, single point]"
9,COC(=O)c1ccc(Cn2cnc3ccccc3c2=O)cc1,"12.6 µM [rising, single point]"
10,COc1ccc(-n2cnnc2SCc2csc(-c3ccccc3)n2)cc1,"10 µM [rising, single point]"
11,Cc1cccc(C)c1NS(=O)(=O)c1ccc(F)cc1,"25.1 µM [falling, single point]"
12,CCOC(=O)Cn1c(=O)oc2cc(S(=O)(=O)NC3CCCc4ccccc43)ccc21 (configuration not stated),"12.6 µM [rising, partial curve]"
13,CC(C)[C@@H](CC(=O)N[C@@H]1CCCC[C@H]1C(=O)N[C@H](CC(=O)N[C@@H](CCC(=O)O)CC(=O)O)Cc1c[nH]c2ccccc12)NC(=O)C[C@H](CO)NC(=O)[C@@H]1CNCC[C@H]1N,"10 µM [falling, partial curve]"
14,Cc1cc(C)nc(-n2nc(C)c(C3(O)C(=O)Nc4ccc(F)cc43)c2N)n1 (configuration not stated),"3.98 µM [falling, partial curve]"
15,O=C(COC(=O)c1ccco1)NCC1CCCO1 (configuration not stated),"12.6 µM [rising, single point]"
16,Nc1nc2sc3c(c2c(=O)s1)CCCC3,"7.94 µM [rising, partial curve]"
17,O=C(Nc1ccc(F)cc1)N1CCC(c2nc3c(nnn3Cc3cccc(Cl)c3)c(=O)[nH]2)CC1,"25.1 µM [rising, single point]"
18,O=[N+]([O-])c1cc(Cl)cc2c1nc(NCCO)c1ccccc12,"5.01 µM [rising, single point]"
19,COc1ccc(C(=O)COC(=O)c2ccc(OC)c(OC)c2)cc1OC,"10 µM [rising, partial curve]"
20,COc1cccc(CNc2nc3nc(C)cc(C)n3n2)c1,"0.631 µM [rising, full curve]"
21,COc1nc(NCC(C)C)nc(Oc2ccc(=O)n(-c3ccccc3)n2)n1,"10 µM [rising, partial curve]"
